The values below come from publication PMC8956657.

Amino acid sequences for entries named in this document (tags omitted). Residues count along the entry.
UniProt O60684, 73-536: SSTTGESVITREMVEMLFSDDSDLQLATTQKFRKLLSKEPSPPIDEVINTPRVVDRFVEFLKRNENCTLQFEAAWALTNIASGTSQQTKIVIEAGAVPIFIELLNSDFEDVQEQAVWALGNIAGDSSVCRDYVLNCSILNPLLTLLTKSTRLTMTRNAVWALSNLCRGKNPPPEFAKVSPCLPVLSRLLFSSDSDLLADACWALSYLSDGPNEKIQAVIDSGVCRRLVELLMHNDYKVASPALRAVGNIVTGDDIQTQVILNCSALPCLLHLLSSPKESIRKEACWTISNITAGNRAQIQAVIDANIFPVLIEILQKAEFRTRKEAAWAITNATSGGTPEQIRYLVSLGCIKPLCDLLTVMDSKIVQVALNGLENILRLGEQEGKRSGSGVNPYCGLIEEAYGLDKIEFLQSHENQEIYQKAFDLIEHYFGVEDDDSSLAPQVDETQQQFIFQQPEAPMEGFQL

Results are given in words; binding and its absence hold for the method and conditions named. Some binding calls cover weakened binding; strength is not graded here.

The assay addresses IMPα7 lacking the IBB domain (residues 73-536) (UniProt O60684). The assay is described as follows: native gel or EMSA; both purified. In general terms: In EMSA bound probe runs differently from free probe, usually more slowly.

As to “FITC-tagged MERS-CoV ORF4b NLS peptide (residues 19-39), wild type (from UniProt K9N643 19-39)”, the binding entry is reported as “binds”.
